Measurements as given in publication PMC6321534.

Chains of the proteins cited; added tags and fusions are not shown. Lines headed by an entry give the natural chain unless they say otherwise; changes in a name come on top.
UniProt C4M6P6: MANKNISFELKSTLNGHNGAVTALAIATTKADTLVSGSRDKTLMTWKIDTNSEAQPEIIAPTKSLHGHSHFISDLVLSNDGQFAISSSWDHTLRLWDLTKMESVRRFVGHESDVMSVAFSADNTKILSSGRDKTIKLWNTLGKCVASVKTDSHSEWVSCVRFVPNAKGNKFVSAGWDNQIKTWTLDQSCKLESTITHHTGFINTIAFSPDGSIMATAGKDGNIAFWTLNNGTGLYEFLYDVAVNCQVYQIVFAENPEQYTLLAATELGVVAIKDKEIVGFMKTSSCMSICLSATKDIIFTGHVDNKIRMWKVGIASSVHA
UniProt C4LTS8: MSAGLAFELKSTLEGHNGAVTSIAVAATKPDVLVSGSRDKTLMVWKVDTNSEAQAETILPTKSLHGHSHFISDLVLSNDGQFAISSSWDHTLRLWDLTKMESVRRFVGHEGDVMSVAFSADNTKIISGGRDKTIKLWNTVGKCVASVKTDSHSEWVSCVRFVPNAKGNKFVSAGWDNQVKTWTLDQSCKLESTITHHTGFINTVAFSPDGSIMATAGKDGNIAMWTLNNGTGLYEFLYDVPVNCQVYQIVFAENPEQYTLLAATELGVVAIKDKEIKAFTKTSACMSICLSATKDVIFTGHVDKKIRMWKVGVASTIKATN

T1: N-terminal Myc-tagged EhRab8A (3Myc-EhRab8A) (E. histolytica)
T1 sequence: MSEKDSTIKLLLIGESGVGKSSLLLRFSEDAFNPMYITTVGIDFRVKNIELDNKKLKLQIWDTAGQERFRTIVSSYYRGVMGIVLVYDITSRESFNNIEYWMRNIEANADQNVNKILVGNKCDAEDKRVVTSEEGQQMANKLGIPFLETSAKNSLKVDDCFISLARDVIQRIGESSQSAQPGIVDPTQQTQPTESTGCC

B1: EhCdc50 (EHI_142740), endogenous (protein, UniProt C4M6E4 1-316)
chain: MSEKVKGLVSKTFSTSFKQQEMKSCVPLYRPLTVILFFLITGIIFIPIGIAVFVVTNNCQEYSVKYVGEGSALTCKQGATCEFQFNIPKPMKTPVYVYYQLTNFYQNHREYLRSRSNKQLKGDPISTYSQLSDCTPLISLNNSKNPHMFYEPCGLVAASFFNDSFEITMQPEKESSSVLLELNKENINWKSDKKLFGEPAERNGIKVVNSYTDPDFINWMRPAVSSTFRKLTGIIENVEEVKGNVTVKVVNNFPVESFKGTKTIILATTSVFGSKNPALGIIYMATGGVFVIIAILLFILTRVSPRKFADKRFLRW
B2: MIT domain protein (EHI_093860) (protein, UniProt C4LYH7 1-671)
chain: MSLDKAITVAEEAINFDNLEDDYNAISKYKEAVEYLKLAHSDPSNAESYSVILNKIMEYNERIEYLAELHPGDTKFEELVKAPVVLDQPLSNNIPTQAQVLEEPKPIIIQPIEQSKPIEQSKPIEQSKPIEQSKPIEQSKPIEQSKPQNVEPILNQQQEKPQNVEPILNHQQEKPQEIIKPLFPEPSQPIEEKKDSTVIEQGEEQQNKSKVLVGAVKVMPTTDISQQPTNSKVNQPEERQVQPTFNIVQSTPMPTTGMVPVMMPTTQPVINPMMTSVNGYLPVITPQGPMLMPTTQPPSLQQPVFPHFGTEPNSSLIGGPIIPITSAPIQSVQEQKPKIPKQSTTALRTAFIRSKLSLEHPSTLNGLKAWKLAKPLAEKGKEFDSQTKYADALAYYETALDYFAQALRAPELTDNMKKQLKEEVKAYLTRAEQIKPVVVEFLKQNPTYFGEVDNEDSQRLETCIVCNKRIEGEFVSALGYNYHPQCFVANVNCKLCGKPFTFPKMEFKIYNDQAYHPLCFEGVTGLEKEITYTPTFQHGTIFYKVKLPKKIFNVNDSFMYDITIDNSTNCCINYIETGLLCEETRFSRGFSGEMKGETTKTEMAKKKIMFEGKVMRNGVITKSEMFSIGMVRPSHHNDIMFYRGYKFVVSLKVSGVALGPKEIVFPIYINE
B3: Lysophospholipid acyltransferase 1 (EHI_086180) (protein, UniProt C4M373 1-487)
chain: MLDSFVTTSAQLIGFPEDVFRFLFAFIVEVPISIICRYIPLSTDMKYLIYGIIGIFISFFVYSTMTYCVLITMIPVYLIMKYVPTRKGAYACFGISLGYLLTIHIKRMIDNYLGYDLDFSSVQMVLTIKFTTFAFSVCNAQDKEYKCSEHTEKHNIYNYPSILQFFGYTFFFPAFFSGPSMEYTDFVSFIDMSMFKEFNNKLPPINMKAVGTVTLRLILIIVFHLVSIKCSIFEFCEYYILGHKEESTCWFKLLMILLYVEFIKLRYYFVWEFGELLSILMGFGYSGMKDGETTWEGFKNVDIWKMETSDSVRQIVSNWNIQTERWLRYYVYERLNQNKTLAPYKSLLTNMVSAFWHGLYPGYYIAFGTMTLQQKFQYMLYTQVLPLLRNKYGEKSIPIYLYHTFNYIYTPFAQMYCFVSFVLLSFSATFTVYSYTYFIPHIIALSGWMYLSYFPVYKKPSRQETVETKPKEVSTGSPATKETTKSE
B4: Translation initiation factor (EHI_180410) (protein, UniProt C4M290 1-286)
chain: MATINFNIHYITYFGQDLYVCFNDSECVPMNWTNGHMWVGKKTINGPTHLEWYYLVKVHNKIQRIEEVHGLREYNFNGNSASVRDWWYYPELTYVTDTSDEQGVINKQGLDEKTLKAKKEAEEKAKKEAEEKAKKEAEEKAKKEAEEKAKKEAEEKAKKEAEEKAKKEAEEKAKKEAEEKAKKEAEEKARKEKSEKEKQERLKQLPSLDESVGFYPVQRSKGSPSSSDRSSERSSERNESNRLKRSSQIQEQIRKYEELAKSSQEDAQKSIRHTSSSKRVSKTFGK
B5: Nuclear pore protein (EHI_118780) (protein, UniProt C4LYM6 1-341)
chain: MSKQQSNSPVFPLGEPKTFQDTISGIEGYSSQNGILVGVSSWDKTCKAFLVNSPTQTQIVGSVNCNSPLTSICKFCKFCESQFLVGSLNGGVYLWNVQQNSLQQVGQFNDCITSMKPFPETNSIVISSLDGSLGLLDLNSGNISKMPVNNKIICMDAKYPYITFHTPNKVEVFNIQSGKLMTDTLIGGQQSTVNSSVQCIAVFPDRKGIVYGGADGRANVLHFENKSNQYTYAFKAQHKKISTTQTYYYPVNSISFYNETIFLTAGSDGVINIWDKNKKSLVNTLTSPIQNCPITTADFICENKFLAYSVGYDWHQGVEGLLQQQVSVPVIKVVDDPLVRL
B6: EhCP-C6 (EHI_127030) (protein, UniProt C4LWX8 1-503)
chain: METVTTDIIRNGTQQVVNVINQHTSSHSKPIKSSFVLSNLPPVKFQGKRSTCWVFSTIFQLEYAYNKDLSNKYISLNEQAYAIDAVEACKADDYKGCPKKRFDYSTNTGYPQFLWRYSSLSNKVLPESICEYQTNKDNEWKCDGKEQAQKTNALKFDVKSIATFRTIEELKEAVKQGPVSLVLVLVQGQYIIQVDNKDNILGKIPGAEIKECPENSNLCVYIPSERITNDGEYIIPERANNRYGYHVVTIVGYNDNYITKDNTCGAFIIRDSTDDTLVYGSHSYQYLKGEHSEWDERTLCANVYNPLGWDSCVYMNPGPTGDSKVVKYDLKATCLNEKYIKENVLNTRKPTEFKCINSDFCDTTKRYFISSTSRSQHSSYLFTITFLEVNPNNTDEQKEITFTDFPLDSYNKFIQPIDSQIELIQTNTTFCGYRSLPYIVLDKISMAKTQDSYYGVQFNIEWDKQSYPNNGEFDYSQILKSIHEFPEYKGFLGPEPYQVRYED

These molecules were tested against T1, N-terminal Myc-tagged EhRab8A (3Myc-EhRab8A) (E. histolytica) (assay: affinity purification with mass spectrometry; cells cross-linked with 2 mM DSP, p13 fraction in 2% digitonin; Myc-EhRab8A precipitated with anti-Myc agarose at 4 °C, washed with 0.5% digitonin, eluted with Myc peptide; 35 and 40 kDa bands of the silver-stained gel analysed by LC-MS/MS; mock cells as control).

Row | Molecule | binding
1 | Guanine nucleotide-binding Ribosomal protein (EHI_171280) (from UniProt C4M6P6) | binds
2 | Guanine nucleotide-binding Ribosomal protein (EHI_050550) (from UniProt C4LTS8) | binds

Biological target: T1, N-terminal Myc-tagged EhRab8A (3Myc-EhRab8A) (E. histolytica)
Assay: as above
Remark: another data set of the same source

Row | Molecule | binding
3 | B1 | binds
4 | B2 | binds
5 | B3 | binds
6 | B4 | binds
7 | B5 | binds
8 | B6 | binds

These are yes or no findings as the source states them, for the method shown. In cells and extracts the contact can be indirect. Here binding means that the protein was enriched with, or labelled near, the bait; the list need not be complete. Where a sequence is shown, tags or fusion partners need not be part of it.
